PubChem BioAssay AID1159578 – Peter MacCallum Cancer Centre | 2015

Test: 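siRNA pools altering how lymphatic endothelial cells close a scratch wound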 (primary screen)
System: human lymphatic endothelial cells
Reagents: siRNA pool against human genes, 40 nM
Duration: 48 h after transfection
Detection: 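High-content imaging of dye-stained cells in a scratch assay measures filled wound area and nuclei per well; duplicate means given as ratio to mock and robust z-score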
Scale: migration robust z-score: higher = faster migration into the scratch; nuclei per well: higher = more cells in the well
Call rule: 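Migration changed when robust z exceeds 2 or falls below -2 and mean nuclei number is at least 3300; otherwise not called changed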
Meaning of the calls: active = migration changed; inactive = no migration change, or too few cells
This is one part, drawn at random, of about 18,000 reagents. Of all reagents, about 1,030 (5.7%) were called active. 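Inactive calls also include pools with fewer than 3300 nuclei, whose migration was not assessed.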 The raw values are shown without normalisation. A number with no mark means an inactive call. Further read-outs or replicates are left out here.

gene symbol	migration robust z-score	migration class with cell-count check	nuclei per well, duplicate mean
ANO10 (GeneID 55129)	0.46	migration z between -2 and 2; enough cells	6238
UBTF (GeneID 7343)	0.18	migration z between -2 and 2; enough cells	6668
ARMH3 (GeneID 79591)	-0.94	migration z between -2 and 2; enough cells	5113
CENPI (GeneID 2491)	-1.32	migration z between -2 and 2; enough cells	7514
GPM6B (GeneID 2824)	-0.24	migration z between -2 and 2; enough cells	5627
POLR2E (GeneID 5434)	-1.48	under 3300 nuclei; migration not judged	3010
PPIE (GeneID 10450)	0.07	migration z between -2 and 2; enough cells	6206
SLC22A14 (GeneID 9389)	1.18	migration z between -2 and 2; enough cells	5852
DPP8 (GeneID 54878)	-0.5	migration z between -2 and 2; enough cells	5150
SEMA4C (GeneID 54910)	-2.76 (active)	migration z below -2; enough cells	5020
STK33 (GeneID 65975)	-3.17 (active)	migration z below -2; enough cells	3798
MRAP2 (GeneID 112609)	2.68 (active)	migration z above 2; enough cells	5514
ADAMDEC1 (GeneID 27299)	0.65	migration z between -2 and 2; enough cells	6342
UNKL (GeneID 64718)	-1.22	migration z between -2 and 2; enough cells	5773
ATP5F1C (GeneID 509)	0.65	migration z between -2 and 2; enough cells	6676
TIGIT (GeneID 201633)	-1.26	migration z between -2 and 2; enough cells	5902
STK38 (GeneID 11329)	-2.67 (active)	migration z below -2; enough cells	4942
HAAO (GeneID 23498)	-1.77	migration z between -2 and 2; enough cells	5780
KIAA0232 (GeneID 9778)	-1.62	migration z between -2 and 2; enough cells	5078
SDK1 (GeneID 221935)	0.92	migration z between -2 and 2; enough cells	6430
KCTD16 (GeneID 57528)	0	migration z between -2 and 2; enough cells	5772
GSTK1 (GeneID 373156)	-0.18	migration z between -2 and 2; enough cells	5030
CIAO2B (GeneID 51647)	0.08	migration z between -2 and 2; enough cells	6480
